Source: US5789447A, “Nitric oxide releasing compounds as protective agents in ischemia reperfusion injury” (priority 1995, dated 1998)

Test: Chemical controls: DEA/NO or NO with hydrogen peroxide
Type: physicochemical
Description: Anaerobic solutions of 1 mM hydrogen peroxide in 10 mM phosphate buffer, pH 7.4, were mixed with 1 mM NO. […] The rate of decomposition of DEA/NO was unaffected by the presence of 1 mM hydrogen peroxide; likewise, hydrogen peroxide was not consumed by DEA/NO or intermediates of the DEA/NO decomposition reaction as measured by the production of I3^- (Hochanadel, J. Phys. Chem., 56, 587-594 (1952)).

In the case of nitric oxide [NO], the formation of nitrate/nitrite (1 mM NO with 1 mM hydrogen peroxide, anaerobic, pH 7.4, <1000 s, 210 nm stopped-flow) is reported as “No rapid formation of nitrate/nitrite” and the “consumption of NO by hydrogen peroxide” value (aerobic, 100 mM phosphate pH 7.4, 1 mM hydrogen peroxide, sulfinamide nitrosation) is reported as “not significant”.
